Some of these results come from one statement about several compounds together.
system: BsPPS and ErPPK; experiment: Conversion of polyphenol substrates by coupled BsPPS/ErPPK system; type: biochemical, Bacillus subtilis; conditions: 2 mM polyphenol, 1 mM ATP, 0.5 mg/mL purified BsPPS and ErPPK, 37° C., pH 7.5, 2-h incubation

Q: With `O=c1cc(-c2ccc(O)c(O)c2)oc2cc(O)cc(O)c12` [LUT, luteolin] as the compound, how does the conversion rate read?
A: exceeding 50%

Q: `O=c1c(-c2ccc(O)cc2)coc2cc(O)cc(O)c12` [genistein] was tested. Which conversion rate did it give?
A: exceeding 50%

Q: Which conversion rate does the source give for `COc1ccc([C@@H]2CC(=O)c3c(O)cc(O)cc3O2)cc1O` [hesperetin] here?
A: exceeding 50%

Q: `O=c1c(O)c(-c2ccc(O)c(O)c2)oc2cc(O)cc(O)c12` [quercetin] was tested. Which conversion rate did it give?
A: exceeding 50%

Q: With `Oc1ccc(C=Cc2cc(O)cc(O)c2)cc1` [resveratrol] as the compound, how does the conversion rate read?
A: exceeding 50%

Q: Which conversion rate does the source give for silybins here?
A: exceeding 50%

Reference: patent US20240318212A1, “PHOSPHORYLATION OF PHENOLIC PHYTOCHEMICALS BY TWO ENZYMES COUPLED SYSTEM” (National Taiwan University, priority 2023, published 2024)
